In doi:10.1101/2025.08.19.670962, “Structural basis for binding of RILPL1 to TMEM55B reveals a lysosomal platform for adaptor assembly through a conserved TBM motif” (bioRxiv, 2025):
No constants are given. Whether binding was seen depends on the method and setting. In cells and extracts the contact can be indirect. A yes stands for co-enrichment or nearness to the bait. Other partners may have been found. Values belong to the binder of their own block, whether it stands above or below them.

Sequences of proteins named here, by UniProt entry; tags and fusion partners are left off. A change or cut given only in a name is not applied to a line headed by its entry. A line that says so, or that is headed by a name, gives the form on record, which may keep a tag or linker.
Halo-TMEM55B (Q86T03, form named): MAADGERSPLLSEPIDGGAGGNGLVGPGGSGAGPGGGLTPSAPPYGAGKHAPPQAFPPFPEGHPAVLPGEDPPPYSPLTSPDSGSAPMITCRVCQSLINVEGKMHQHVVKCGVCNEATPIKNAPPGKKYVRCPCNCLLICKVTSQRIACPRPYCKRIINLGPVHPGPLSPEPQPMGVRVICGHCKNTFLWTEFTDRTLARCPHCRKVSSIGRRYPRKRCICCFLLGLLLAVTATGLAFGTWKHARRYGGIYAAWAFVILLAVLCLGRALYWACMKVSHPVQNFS

Target: Halo-TMEM55B (UniProt Q86T03)
Assay: affinity purification with mass spectrometry; Halo-TMEM55B WT or R151E on HaloLink resin from transfected cells with Rab8A Q67L and LRRK2 Y1699C (or Y1699C D2017A); DIA-MS

binding: binds
B1: RILPL1 (in HEK293 lysate) (protein, UniProt Q5EBL4 1-403)
chain: MEEERGSALAAESALEKNVAELTVMDVYDIASLVGHEFERVIDQHGCEAIARLMPKVVRVLEILEVLVSRHHVAPELDELRLELDRLRLERMDRIEKERKHQKELELVEDVWRGEAQDLLSQIAQLQEENKQLMTNLSHKDVNFSEEEFQKHEGMSERERQVMKKLKEVVDKQRDEIRAKDRELGLKNEDVEALQQQQTRLMKINHDLRHRVTVVEAQGKALIEQKVELEADLQTKEQEMGSLRAELGKLRERLQGEHSQNGEEEPETEPVGEESISDAEKVAMDLKDPNRPRFTLQELRDVLHERNELKSKVFLLQEELAYYKSEEMEEENRIPQPPPIAHPRTSPQPESGIKRLFSFFSRDKKRLANTQRNVHIQESFGQWANTHRDDGYTEQGQEALQHL

binding: binds
B2: JIP3 (in HEK293 lysate) (protein, UniProt Q9UPT6 1-1336)
chain: MMEIQMDEGGGVVVYQDDYCSGSVMSERVSGLAGSIYREFERLIHCYDEEVVKELMPLVVNVLENLDSVLSENQEHEVELELLREDNEQLLTQYEREKALRRQAEEKFIEFEDALEQEKKELQIQVEHYEFQTRQLELKAKNYADQISRLEERESEMKKEYNALHQRHTEMIQTYVEHIERSKMQQVGGNSQTESSLPGRRKERPTSLNVFPLADGTVRAQIGGKLVPAGDHWHLSDLGQLQSSSSYQCPQDEMSESGQSSAAATPSTTGTKSNTPTSSVPSAAVTPLNESLQPLGDYGVGSKNSKRAREKRDSRNMEVQVTQEMRNVSIGMGSSDEWSDVQDIIDSTPELDMCPETRLDRTGSSPTQGIVNKAFGINTDSLYHELSTAGSEVIGDVDEGADLLGEFSVRDDFFGMGKEVGNLLLENSQLLETKNALNVVKNDLIAKVDQLSGEQEVLRGELEAAKQAKVKLENRIKELEEELKRVKSEAIIARREPKEEAEDVSSYLCTESDKIPMAQRRRFTRVEMARVLMERNQYKERLMELQEAVRWTEMIRASREHPSVQEKKKSTIWQFFSRLFSSSSSPPPAKRPYPSVNIHYKSPTTAGFSQRRNHAMCPISAGSRPLEFFPDDDCTSSARREQKREQYRQVREHVRNDDGRLQACGWSLPAKYKQLSPNGGQEDTRMKNVPVPVYCRPLVEKDPTMKLWCAAGVNLSGWRPNEDDAGNGVKPAPGRDPLTCDREGDGEPKSAHTSPEKKKAKELPEMDATSSRVWILTSTLTTSKVVIIDANQPGTVVDQFTVCNAHVLCISSIPAASDSDYPPGEMFLDSDVNPEDPGADGVLAGITLVGCATRCNVPRSNCSSRGDTPVLDKGQGEVATIANGKVNPSQSTEEATEATEVPDPGPSEPETATLRPGPLTEHVFTDPAPTPSSGPQPGSENGPEPDSSSTRPEPEPSGDPTGAGSSAAPTMWLGAQNGWLYVHSAVANWKKCLHSIKLKDSVLSLVHVKGRVLVALADGTLAIFHRGEDGQWDLSNYHLMDLGHPHHSIRCMAVVYDRVWCGYKNKVHVIQPKTMQIEKSFDAHPRRESQVRQLAWIGDGVWVSIRLDSTLRLYHAHTHQHLQDVDIEPYVSKMLGTGKLGFSFVRITALLVAGSRLWVGTGNGVVISIPLTETVVLHRGQLLGLRANKTSPTSGEGARPGGIIHVYGDDSSDRAASSFIPYCSMAQAQLCFHGHRDAVKFFVSVPGNVLATLNGSVLDSPAEGPGPAAPASEVEGQKLRNVLVLSGGEGYIDFRIGDGEDDETEEGAGDMSQVKPVLSKAERSHIIVWQVSYTPE
